{"source": "PubChem BioAssay AID1224826 (NIAID, 2016)", "screen": "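Genes that change LPS-induced Tnf promoter activity in mouse macrophages when knocked down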 (primary screen)", "system": "RAW264.7 G9 macrophages from mouse bearing reporters for p65 (GFP) and the Tnf promoter (mCherry)", "reagents": "siRNA pool against mouse genes, 100 nM", "duration": "16 h of LPS stimulation, after 2 days of siRNA transfection", "challenge": "bacterial lipopolysaccharide (Salmonella minnesota R595), 10 ng/ml", "measurement": "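Imaged Tnf reporter mCherry in nuclei, minus background, normalised per plate to the median and expressed as robust z-scores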", "scale": "Tnf reporter robust z-score: higher = stronger Tnf promoter reporter signal after LPS", "rule for the call": "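a well counts as active at a score of -1.3 or below (Tlr4 knock-down control median) or above 3 (raised signal); controls and wells holding fewer than 50 cells are excluded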", "calls": "active = Tnf reporter clearly lowered or raised; inactive = no clear change in Tnf reporter", "note": "Here is an unselected part of about 17,000 reagents tested. Of all reagents, about 1,110 (6.6%) were called active. 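Active means lowered or raised reporter signal; replicate intensities are raw and not normalised per plate.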 The numbers tell different reagents against one gene apart. Further read-outs or replicates are left out here."}
{"target":"Tex9","pool no.":1,"Tnf reporter robust z-score":0.57,"fewer than 50 cells in well":"enough cells in well","call":"inactive"}
{"target":"Ttc34","pool no.":1,"Tnf reporter robust z-score":0.48,"fewer than 50 cells in well":"enough cells in well","call":"inactive"}
{"target":"Srbd1","pool no.":1,"Tnf reporter robust z-score":-0.56,"fewer than 50 cells in well":"enough cells in well","call":"inactive"}
{"target":"Apol10b","pool no.":1,"Tnf reporter robust z-score":-0.84,"fewer than 50 cells in well":"enough cells in well","call":"inactive"}
{"target":"Tas2r120","pool no.":1,"Tnf reporter robust z-score":-1.42,"fewer than 50 cells in well":"enough cells in well","call":"active"}
{"target":"Sh3pxd2b","pool no.":1,"Tnf reporter robust z-score":-0.53,"fewer than 50 cells in well":"enough cells in well","call":"inactive"}
{"target":"Lingo4","pool no.":1,"Tnf reporter robust z-score":-1,"fewer than 50 cells in well":"enough cells in well","call":"inactive"}
{"target":"Tmem14c","pool no.":1,"Tnf reporter robust z-score":1.95,"fewer than 50 cells in well":"enough cells in well","call":"inactive"}
{"target":"Pabir1","pool no.":1,"Tnf reporter robust z-score":-0.31,"fewer than 50 cells in well":"enough cells in well","call":"inactive"}
{"target":"Catsper4","pool no.":1,"Tnf reporter robust z-score":-0.19,"fewer than 50 cells in well":"enough cells in well","call":"inactive"}
{"target":"Vmn1r41","pool no.":1,"Tnf reporter robust z-score":-0.41,"fewer than 50 cells in well":"enough cells in well","call":"inactive"}
{"target":"Gdnf","pool no.":1,"Tnf reporter robust z-score":-1.07,"fewer than 50 cells in well":"enough cells in well","call":"inactive"}
{"target":"Atg2b","pool no.":1,"Tnf reporter robust z-score":0.95,"fewer than 50 cells in well":"enough cells in well","call":"inactive"}
{"target":"Atg2b","pool no.":2,"Tnf reporter robust z-score":1.61,"fewer than 50 cells in well":"enough cells in well","call":"inactive"}
